These are yes or no findings as the source states them, for the method shown. Binding seen in cells or lysates may run through a third protein. These calls come from enrichment with a bait or labelling near it, and not all partners need be listed.

Chains of the proteins cited; added tags and fusions are not shown. Lines headed by an entry give the natural chain unless they say otherwise; changes in a name come on top.
UniProt Q8IE50: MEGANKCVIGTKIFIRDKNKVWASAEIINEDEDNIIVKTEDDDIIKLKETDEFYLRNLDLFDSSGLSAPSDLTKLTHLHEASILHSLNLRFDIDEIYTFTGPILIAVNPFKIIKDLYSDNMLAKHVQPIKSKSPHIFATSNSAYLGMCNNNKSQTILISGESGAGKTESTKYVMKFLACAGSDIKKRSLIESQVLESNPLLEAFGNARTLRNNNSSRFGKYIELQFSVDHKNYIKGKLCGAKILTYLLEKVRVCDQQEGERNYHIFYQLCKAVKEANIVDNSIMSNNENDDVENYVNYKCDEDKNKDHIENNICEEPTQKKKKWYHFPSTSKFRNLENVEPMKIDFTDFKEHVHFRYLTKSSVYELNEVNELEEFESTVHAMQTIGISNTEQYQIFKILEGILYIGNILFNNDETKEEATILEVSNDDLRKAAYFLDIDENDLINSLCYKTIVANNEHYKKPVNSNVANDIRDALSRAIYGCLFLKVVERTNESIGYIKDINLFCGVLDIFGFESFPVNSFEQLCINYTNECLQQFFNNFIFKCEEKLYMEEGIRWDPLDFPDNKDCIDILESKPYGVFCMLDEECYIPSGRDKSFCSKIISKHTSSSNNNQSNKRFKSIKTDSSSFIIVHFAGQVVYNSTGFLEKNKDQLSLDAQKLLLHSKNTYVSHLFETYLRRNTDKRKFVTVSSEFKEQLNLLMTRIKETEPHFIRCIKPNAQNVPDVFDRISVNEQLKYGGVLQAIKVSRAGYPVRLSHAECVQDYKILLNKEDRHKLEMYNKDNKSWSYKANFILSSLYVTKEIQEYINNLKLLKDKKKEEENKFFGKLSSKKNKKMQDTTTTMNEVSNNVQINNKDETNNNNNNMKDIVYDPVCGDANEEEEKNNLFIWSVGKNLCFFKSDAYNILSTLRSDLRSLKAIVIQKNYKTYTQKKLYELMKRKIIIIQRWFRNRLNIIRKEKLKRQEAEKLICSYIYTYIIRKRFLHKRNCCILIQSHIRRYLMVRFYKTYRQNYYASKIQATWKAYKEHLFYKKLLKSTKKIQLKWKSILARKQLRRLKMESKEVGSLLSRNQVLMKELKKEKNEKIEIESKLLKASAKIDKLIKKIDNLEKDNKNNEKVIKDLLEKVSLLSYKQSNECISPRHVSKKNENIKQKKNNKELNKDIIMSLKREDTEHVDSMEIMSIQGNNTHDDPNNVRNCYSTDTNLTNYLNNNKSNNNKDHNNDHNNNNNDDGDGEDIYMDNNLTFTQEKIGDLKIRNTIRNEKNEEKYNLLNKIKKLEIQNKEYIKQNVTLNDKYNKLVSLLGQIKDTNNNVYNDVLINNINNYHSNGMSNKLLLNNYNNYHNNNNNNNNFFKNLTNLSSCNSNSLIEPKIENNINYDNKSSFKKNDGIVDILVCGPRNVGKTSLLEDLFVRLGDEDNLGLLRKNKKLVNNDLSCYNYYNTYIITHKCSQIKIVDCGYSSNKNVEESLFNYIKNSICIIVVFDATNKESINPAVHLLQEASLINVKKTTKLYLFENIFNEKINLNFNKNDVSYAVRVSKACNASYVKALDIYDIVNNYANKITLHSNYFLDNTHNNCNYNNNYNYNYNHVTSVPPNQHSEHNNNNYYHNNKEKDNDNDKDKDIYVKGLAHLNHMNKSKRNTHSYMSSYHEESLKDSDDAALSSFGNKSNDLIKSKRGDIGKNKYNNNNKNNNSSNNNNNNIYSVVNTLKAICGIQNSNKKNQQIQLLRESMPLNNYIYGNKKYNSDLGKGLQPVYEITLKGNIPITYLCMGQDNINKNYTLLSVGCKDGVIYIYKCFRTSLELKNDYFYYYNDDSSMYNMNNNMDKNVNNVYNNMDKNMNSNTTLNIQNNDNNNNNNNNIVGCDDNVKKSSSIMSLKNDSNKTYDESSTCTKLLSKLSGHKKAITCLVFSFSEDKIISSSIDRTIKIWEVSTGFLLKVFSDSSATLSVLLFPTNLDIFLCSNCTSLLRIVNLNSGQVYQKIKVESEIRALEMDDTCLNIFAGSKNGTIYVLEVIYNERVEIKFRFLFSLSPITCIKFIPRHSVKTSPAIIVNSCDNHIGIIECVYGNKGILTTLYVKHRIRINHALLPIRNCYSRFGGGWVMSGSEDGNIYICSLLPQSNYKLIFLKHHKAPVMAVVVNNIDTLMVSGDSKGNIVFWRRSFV
UniProt C6KT34: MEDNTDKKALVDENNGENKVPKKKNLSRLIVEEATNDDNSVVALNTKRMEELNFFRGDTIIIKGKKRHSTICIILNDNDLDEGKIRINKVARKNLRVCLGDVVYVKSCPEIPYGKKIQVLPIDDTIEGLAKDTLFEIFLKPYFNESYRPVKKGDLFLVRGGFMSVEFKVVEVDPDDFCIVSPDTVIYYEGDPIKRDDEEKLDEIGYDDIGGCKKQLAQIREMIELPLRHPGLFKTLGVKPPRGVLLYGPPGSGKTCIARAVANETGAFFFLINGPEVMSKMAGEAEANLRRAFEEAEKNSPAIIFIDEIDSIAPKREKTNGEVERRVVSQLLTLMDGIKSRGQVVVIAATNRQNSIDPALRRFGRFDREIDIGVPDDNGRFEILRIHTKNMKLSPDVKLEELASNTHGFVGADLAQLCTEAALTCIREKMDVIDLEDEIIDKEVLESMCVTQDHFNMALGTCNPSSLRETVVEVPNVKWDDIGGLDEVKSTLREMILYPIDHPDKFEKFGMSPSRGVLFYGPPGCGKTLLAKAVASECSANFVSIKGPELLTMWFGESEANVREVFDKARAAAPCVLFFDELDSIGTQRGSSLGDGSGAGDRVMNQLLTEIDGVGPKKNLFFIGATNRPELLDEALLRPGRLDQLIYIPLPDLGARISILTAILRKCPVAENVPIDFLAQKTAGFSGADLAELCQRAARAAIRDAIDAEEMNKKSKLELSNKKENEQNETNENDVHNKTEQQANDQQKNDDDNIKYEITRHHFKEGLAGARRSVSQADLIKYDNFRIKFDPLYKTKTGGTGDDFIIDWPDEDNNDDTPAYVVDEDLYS

This assay concerns the target endogenous PfMyoF (Plasmodium falciparum 3D7 (endogenous in parasite lysate)) (UniProt Q8IE50). The experiment in a line: affinity purification with mass spectrometry.

On to PF3D7_0619400 (from UniProt C6KT34), for which the binding result is recorded as “binds”.

B1: PfRab18 (protein, UniProt Q8T324 1-201)
chain: MKNKNKYDYLLKLLLVGDSSVGKSSILCRYSDNQFEEKVLSTIGIDFKVKYLKIDNKTIKVGIWDTAGQERFRTLTSAYYRNAHAIILVYDCTVRESFENLDVWINEIDKYSTNKNAIKMLVANKIDKPNHEVTKDEGKNFAFENNMLFCETSAKNDINITYCFEELIQQILNNPSLLELSIVTKNLKLGKKEESRSNCAC
B1: the binding result is reported as “binds”.

These data come from doi:10.1101/2025.11.10.687607.
